Measured values published in US12409189B2, “STAUFEN1 agents and associated methods” (University of Utah Research Foundation, priority 2016, dated 2025).
At least one structure is not confirmed: it was looked up by name or label, or the drawing left a doubt.

Tested on: Staufen1
Test: Western blot of Staufen1 in SH-SY5Y and ATXN2-Q22/58 knock-in cells
Type: cell-based, human
Details: ATXN2-Q22/58 KI cells, Rapamycin dose-wise, 24 h
Experimental: SH-SY5Y cells were cultured in standard DMEM with 10% FBS and 1X penicillin/streptomycin in 5% CO2. Transfection of STAU1 siRNA or STAU1 ASO was accomplished using Lipofectamine transfection reagent using standard conditions. Cells were harvested 3-5 days post transfection.
Protein extracts were prepared by suspending cell pellets in SDS-PAGE sample buffer (Laemmli sample buffer) followed by boiling for 5 min. Equal amount of the extracts were subjected to Western blot analysis to determine the steady-state levels of proteins using the indicated antibodies. Protein extracts were resolved by SDS-PAGE and transferred to Hybond P membranes (Amersham Bioscience Inc., USA). […] Following three additional washes with 0.1% Tween 20/PBS, signals were detected by using the Immobilon Western Chemiluminescent HRP Substrate (Millipore Inc., USA; cat #WBKLSO100) according to the manufacturer's protocol. […]
Preparation of protein lysates and western blot analyses. […] Signals were detected by using the Immobilon Western Chemiluminescent HRP Substrate (Millipore Inc., USA; cat #WBKLSO100) according to the manufacturer's protocol. The intensity of proteins was determined by using the ImageJ software analyses system and the relative protein abundances were expressed as ratios to β-actin.

CO[C@H]1C[C@@H]2CC[C@@H](C)[C@@](O)(O2)C(=O)C(=O)N2CCCC[C@H]2C(=O)O[C@H]([C@H](C)C[C@@H]2CC[C@@H](O)[C@H](OC)C2)CC(=O)[C@H](C)/C=C(\C)[C@@H](O)[C@@H](OC)C(=O)[C@H](C)C[C@H](C)/C=C/C=C/C=C/1C [Rapamycin]
Staufen1 levels: dose-wise decreased levels of elevated Staufen1 | Staufen1 levels (listed as rapamycin): restored
